Test results as given in patent publication US20160090416A1 (NUMAB, published 2016).
Positions count from the first letter of the chain named. No constants are given. Whether binding was seen depends on the method and setting. Some entries that bind do so weakly or less than the wild type. Blank lines part the entries; values can stand above or below the binder they belong to.

The chains behind the UniProt entries cited, without tags or fusion partners. Where a name states a change or a piece, a line headed by the entry shows the natural chain unless it says otherwise.
UniProt P07766: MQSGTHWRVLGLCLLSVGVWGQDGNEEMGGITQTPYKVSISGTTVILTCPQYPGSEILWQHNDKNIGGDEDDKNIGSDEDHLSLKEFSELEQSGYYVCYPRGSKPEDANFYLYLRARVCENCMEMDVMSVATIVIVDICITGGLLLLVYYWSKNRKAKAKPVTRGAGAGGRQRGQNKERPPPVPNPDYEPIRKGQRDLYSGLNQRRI
UniProt P09693: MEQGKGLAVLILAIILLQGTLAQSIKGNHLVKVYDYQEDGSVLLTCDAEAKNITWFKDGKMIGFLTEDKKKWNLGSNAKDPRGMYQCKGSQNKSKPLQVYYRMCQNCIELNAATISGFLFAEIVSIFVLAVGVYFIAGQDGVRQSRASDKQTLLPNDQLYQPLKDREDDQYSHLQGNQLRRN

Biological target: human heterodimeric single-chain CD3εγ extracellular domain (human) (UniProt P07766+P09693)
Assay: SPR (comparison in words)

B1: clone-03 (antibody, V domains shown)
VH: QSLEESGGRLVTPGTPLTLTCTVSGFPLNRYAMLWVRQAPGKGLEWIGLITRADKKYYASWAKGRFTISKTSTTVDLEITGPTTEDTATYFCARRHYNTDGYPIAIGDLWGPGTLVTVSS
VL: AQVLTQTPSSVSAAVGGTVTISCQSNENIYSNNRLSWFQQKPGQPPNQLIYSASSLASGVPSRFKGSGSGTQFTLTISDLECDDAATYYCQGEFNCNSADCFTFGGGTEVVVKG
binding: binds

B3: clone-02 (antibody, V domains shown)
VH: QSLEESGGRLVTPGTPLTLTCTVSGFPLSAYAMIWVRQAPGKGLEWIGMIIRSGTVYYANWAKGRFTISKTSTTVDLKITSPTTEDTATYFCARRHYNADGYPIGIGDLWGPGTLVTVSS
VL: AQVLTQTPSSVSAVVGGTVTISCQSSESVYSNNRLSWFQQKPGQPPKLLIYSASTLASGVPSRFKGSGSGTQFTLTITDLECDDAATYFCQGEFSCSSVDCFSFGGGTEVVVKG
binding: binds

The remaining lines, values ahead:

binding: binds
B2: clone-06 (antibody, V domains shown)
VH: QSVEESGGRLVTPGTPLTLTCTVSGFPLSSYAMIWVRQAPGKGLEWIGMILRAGNIYYASWVKGRVTISKTSTTVDLKITSPTTEDTATYFCARRHYNREGYPIGIGDLWGPGTLVTVSS
VL: B1 VL with N26S, N28S, I29V, S31N, N33K, N47K, S52T, N95T, N97S, S98N

binding: binds
B4: clone-04 (antibody, V domains shown)
VH: QSLEESGGRLVKPDETLTLTCTVSGFPLSSYAMGWFRQAPGKGLEWIGMILRSDNTYYASWAKGRFTISKTSTTVDLKITSPTTEDTATYFCARRHYNASGNPIAIGDLWGPGTLVTVSS
VL: AQVLTQTPSSVSAAVGGTVTINCQSSQSVYNNNRLSWFQQKPGQPPKLLIYTTSSLASGVPSRFKGSGSGTEFTLTISDLECADAATYYCQGEFSCSRADCFNFGGGTEVVVKG
